Data source: PubChem BioAssay AID686943 (Drosophila RNAi Screening Center, 2013)
Assay: 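Knockdowns that increase or decrease active ERK after insulin receptor stimulation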 (primary screen). Cells: Drosophila S2R+ haemocyte-like cells expressing YFP-tagged ERK (Rolled). Reagent: long dsRNA against Drosophila genes. Treatment: insulin stimulation versus unstimulated cells; dose and duration not given. Measurement: 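Antibody staining for doubly phosphorylated ERK divided by ERK-YFP signal, as plate z-scores, in insulin-treated and untreated cells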. Direction: replicate 1, z-score of dpERK with insulin and replicate 2, z-score of dpERK with insulin: higher = more active ERK per ERK-YFP after insulin; replicate 1, z-score of dpERK under basal conditions: higher = more basal active ERK per ERK-YFP; replicate 1, z-score of ERK-YFP with insulin: higher = more YFP-tagged ERK signal.
The deposit covers about 23,000 reagents; shown is a random part of those that have a named target and a result. 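Extra replicates exist only for a retested subset of genes; insulin dose and duration not given; both raised and lowered dpERK matter.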 Reagents against one gene are numbered here. Not stated in the record: the amount of reagent, the time to read-out.

| target gene | reagent no. | replicate 1, z-score of dpERK with insulin | replicate 2, z-score of dpERK with insulin | replicate 1, z-score of dpERK under basal conditions | replicate 1, z-score of ERK-YFP with insulin |
| --- | --- | --- | --- | --- | --- |
| mAChR-B | 1 | -2.4 | -2.85 | 1.32 | -1.54 |
| CG14757 | 1 | 0.42 | -0.2 | -0.63 | 1.4 |
| Vajk1 | 1 | 0.15 | 0.41 | 1.06 | 0.5 |
| sgl | 1 | 1.5 | -0.02 | -0.42 | -2.38 |
| mRpS35 | 1 | 0.06 | -0.27 | 0.66 | 0.59 |
| CG14635 | 1 | -0.9 | -0.45 | 1.4 | 0.21 |
| CG16974 | 1 | 1.31 | -0.54 | -0.06 | -0.09 |
| Rsbp15 | 1 | -0.82 | -0.85 | -0.53 | 0.12 |
| CG1620 | 1 | -0.68 | 0.19 | 1.82 | 0.16 |
| Dpck | 1 | -1.46 | -0.33 | -0.98 | -0.12 |
| CG9106 | 1 | 0.1 | 0.57 | -0.55 | 0.49 |
| verm | 1 | 0.26 | 0.94 | 1.6 | 0.34 |
| Cdk1 | 1 | -2.74 | -2.38 | -2.8 | -4.35 |
| H15 | 1 | -0.3 | -0.08 | 0.57 | -0.5 |
| H15 | 2 | 0.17 | 0.55 | 0.46 | 0.51 |
| CG30484 | 1 | 0.03 | -0.14 | 0.5 | -0.1 |
| CG34299 | 1 | 0.27 | -0.64 | 0.22 | 0.69 |
| lncRNA:roX1 | 1 | 0.6 | 0.55 | -0.43 | -0.83 |
| MFS15 | 1 | 0.48 | -0.2 | 1.72 | -0.07 |
| L2HGDH | 1 | 0.06 | 0.32 | 1.82 | 0.41 |
| CG13562 | 1 | -0.31 | -0.35 | 0.31 | 0.01 |
| Pis | 1 | 1.12 | 0.49 | 0.33 | 0.08 |
| L (retired record) | 1 | 0.04 | -0.6 | 0.32 | -0.2 |
| L (retired record) | 2 | -0.81 | -1.27 | -0.93 | 0.79 |

Taken from above:
Entry of CG30484 in “replicate 1, z-score of dpERK with insulin”: 0.03
L (retired record) #1, replicate 2, z-score of dpERK with insulin → -0.6
Value of CG16974 under “replicate 1, z-score of ERK-YFP with insulin”: -0.09
H15 #1, replicate 2, z-score of dpERK with insulin → -0.08
